{
  "source": "the supplement of paper PMC4604168 (melanoma cell lines)",
  "note": "The list shows a part of the results. Repeats are few or missing, and single values can be far off.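 Imaging used 1,536-well plates; nuclei positive for cleaved PARP by antibody were divided by total DNA-stained nuclei to yield the apoptosis fraction. Doses for screening kept most cells viable, and cell lines differ markedly in resting and induced cleaved-PARP levels.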",
  "data": [
    {"tested_on": "CBRC014 (line from a melanoma biopsy)", "assay": "cleaved PARP positive nuclei fraction relative to DMSO control; melanoma cells; higher = more apoptosis", "conditions": "library dose: low library concentration; 72 h", "units": {"cleaved PARP positive nuclei fraction": "%"}, "values": [
      {"smiles": "O=c1[nH]nc(Sc2ncc([N+](=O)[O-])s2)n1-c1ccc2c(c1)OCCO2", "note": "+ N.N.[Cl][Pt][Cl] [cisplatin] (first compound 0.2 µM, partner dose 1.6 µM)", "cleaved PARP positive nuclei fraction": 97.2},
      {"smiles": "N.N.[Cl][Pt][Cl]", "note": "[cisplatin] + C=C(c1ccc(C(=O)O)cc1)c1cc2c(cc1C)C(C)(C)CCC2(C)C [Bexarotene] (first compound 1.6 µM, partner dose 2 µM)", "cleaved PARP positive nuclei fraction": 182},
      {"smiles": "C=C(c1ccc(C(=O)O)cc1)c1cc2c(cc1C)C(C)(C)CCC2(C)C", "note": "[Bexarotene] + C[As](C)SC[C@H](NC(=O)CC[C@H](N)C(=O)O)C(=O)NCC(=O)O [Darinaparsin] (first compound 2 µM, partner dose 0.4 µM)", "cleaved PARP positive nuclei fraction": 117},
      {"smiles": "Cc1cc(Nc2cc(N3CCN(C)CC3)nc(Sc3ccc(NC(=O)C4CC4)cc3)n2)n[nH]1", "note": "[Tozasertib] + Cn1cc(C2=C(c3cn(C4CCN(Cc5ccccn5)CC4)c4ccccc34)C(=O)NC2=O)c2ccccc21 [Enzastaurin] (first compound 0.006 µM, partner dose 0.8 µM)", "cleaved PARP positive nuclei fraction": 99.2},
      {"smiles": "CCN(CC)CCNC(=O)c1c(C)[nH]c(/C=C2\\C(=O)Nc3ccc(F)cc32)c1C", "note": "[sunitinib] + N.N.[Cl][Pt][Cl] [cisplatin] (first compound 0.4 µM, partner dose 1.6 µM)", "cleaved PARP positive nuclei fraction": 110},
      {"smiles": "Cn1cc(C2=C(c3cn(C4CCN(Cc5ccccn5)CC4)c4ccccc34)C(=O)NC2=O)c2ccccc21", "note": "[Enzastaurin] + OCc1c[nH]c2ccccc12 [Indole-3-carbinol] (first compound 0.8 µM, partner dose 0.8 µM)", "cleaved PARP positive nuclei fraction": 97},
      {"smiles": "C[As](C)SC[C@H](NC(=O)CC[C@H](N)C(=O)O)C(=O)NCC(=O)O", "note": "[Darinaparsin] + Nc1cccc2c1CN(C1CCC(=O)NC1=O)C2=O [lenalidomide] (first compound 0.4 µM, partner dose 1 µM)", "cleaved PARP positive nuclei fraction": 94.7},
      {"smiles": "C[C@]12O[C@H](C[C@]1(O)CO)n1c3ccccc3c3c4c(c5c6ccccc6n2c5c31)CNC4=O", "note": "[Lestaurtinib] + Clc1ccc(Nc2nnc(Cc3ccncc3)c3ccccc23)cc1 [vatalanib] (first compound 0.004 µM, partner dose 2 µM)", "cleaved PARP positive nuclei fraction": 98.3},
      {"smiles": "Cn1cc(C2=C(c3cn(C4CCN(Cc5ccccn5)CC4)c4ccccc34)C(=O)NC2=O)c2ccccc21", "note": "[Enzastaurin] + O=C(O)c1ccc2c(c1)nc(Nc1cccc(Cl)c1)c1ccncc12 [CX4945] (first compound 0.8 µM, partner dose 0.4 µM)", "cleaved PARP positive nuclei fraction": 104},
      {"smiles": "C[C@]12O[C@H](C[C@]1(O)CO)n1c3ccccc3c3c4c(c5c6ccccc6n2c5c31)CNC4=O", "note": "[Lestaurtinib] + Nc1ncn([C@H]2C[C@H](O)[C@@H](CO)O2)c(=O)n1 [decitabine] (first compound 0.004 µM, partner dose 0.1 µM)", "cleaved PARP positive nuclei fraction": 104},
      {"smiles": "Cn1cc(C2=C(c3cn(C4CCN(Cc5ccccn5)CC4)c4ccccc34)C(=O)NC2=O)c2ccccc21", "note": "[Enzastaurin] + C[C@]1(c2nc3c(C(N)=O)cccc3[nH]2)CCCN1 [Veliparib] (first compound 0.8 µM, partner dose 1.4 µM)", "cleaved PARP positive nuclei fraction": 107},
      {"smiles": "Cc1ccc(Nc2nccc(N(C)c3ccc4c(C)n(C)nc4c3)n2)cc1S(N)(=O)=O", "note": "[Pazopanib] + N.N.[Cl][Pt][Cl] [cisplatin] (first compound 0.4 µM, partner dose 1.6 µM)", "cleaved PARP positive nuclei fraction": 101},
      {"smiles": "C[As](C)SC[C@H](NC(=O)CC[C@H](N)C(=O)O)C(=O)NCC(=O)O", "note": "[Darinaparsin] + Cn1c(Nc2ccc(C(F)(F)F)cc2)nc2cc(Oc3ccnc(-c4ncc(C(F)(F)F)[nH]4)c3)ccc21 [CHIR265] (first compound 0.4 µM, partner dose 0.08 µM)", "cleaved PARP positive nuclei fraction": 111},
      {"smiles": "CC[C@]1(O)C[C@H]2CN(CCc3c([nH]c4ccccc34)[C@@](C(=O)OC)(c3cc4c(cc3OC)N(C=O)[C@H]3[C@@](O)(C(=O)OC)[C@H](OC(C)=O)[C@]5(CC)C=CCN6CC[C@]43[C@@H]65)C2)C1", "note": "[vincristine] + N.N.[Cl][Pt][Cl] [cisplatin] (first compound 0.0001 µM, partner dose 1.6 µM)", "cleaved PARP positive nuclei fraction": 99.7},
      {"smiles": "O=C(/C=C/c1cccnc1)NCCCCC1CCN(C(=O)c2ccccc2)CC1", "note": "+ N.N.[Cl][Pt][Cl] [cisplatin] (first compound 0.01 µM, partner dose 1.6 µM)", "cleaved PARP positive nuclei fraction": 166},
      {"smiles": "Nc1ncn([C@H]2C[C@H](O)[C@@H](CO)O2)c(=O)n1", "note": "[decitabine] + C[As](C)SC[C@H](NC(=O)CC[C@H](N)C(=O)O)C(=O)NCC(=O)O [Darinaparsin] (first compound 0.1 µM, partner dose 0.4 µM)", "cleaved PARP positive nuclei fraction": 102},
      {"smiles": "C#Cc1cccc(Nc2ncnc3cc(OCCOC)c(OCCOC)cc23)c1", "note": "[erlotinib] + C[As](C)SC[C@H](NC(=O)CC[C@H](N)C(=O)O)C(=O)NCC(=O)O [Darinaparsin] (first compound 0.8 µM, partner dose 0.4 µM)", "cleaved PARP positive nuclei fraction": 102},
      {"smiles": "Cn1cc(C2=C(c3cn(C4CCN(Cc5ccccn5)CC4)c4ccccc34)C(=O)NC2=O)c2ccccc21", "note": "[Enzastaurin] + CC(=O)c1c(C)c2cnc(Nc3ccc(N4CCNCC4)cn3)nc2n(C2CCCC2)c1=O [palbociclib] (first compound 0.8 µM, partner dose 0.04 µM)", "cleaved PARP positive nuclei fraction": 124},
      {"smiles": "N.N.[Cl][Pt][Cl]", "note": "[cisplatin] + O=C(O)[C@@H]1[O][Sb](=[O])([O][Sb]2(=[O])[O][C@H]([C@H](O)CO)[C@H](O)[C@H](C(=O)O)[O]2)[O][C@H]([C@H](O)CO)[C@@H]1O [stibogluconate] (first compound 1.6 µM, partner dose 2 µM)", "cleaved PARP positive nuclei fraction": 111},
      {"smiles": "Cc1cn(-c2cc(NC(=O)c3ccc(C)c(Nc4nccc(-c5cccnc5)n4)c3)cc(C(F)(F)F)c2)cn1", "note": "[nilotinib] + C[C@]12O[C@H](C[C@]1(O)CO)n1c3ccccc3c3c4c(c5c6ccccc6n2c5c31)CNC4=O [Lestaurtinib] (first compound 0.2 µM, partner dose 0.004 µM)", "cleaved PARP positive nuclei fraction": 86},
      {"smiles": "CO[C@H]1C[C@@H]2CC[C@@H](C)[C@@](O)(O2)C(=O)C(=O)N2CCCC[C@H]2C(=O)O[C@H]([C@H](C)C[C@@H]2CC[C@@H](OCCO)[C@H](OC)C2)CC(=O)[C@H](C)/C=C(\\C)[C@@H](O)[C@@H](OC)C(=O)[C@H](C)C[C@H](C)/C=C/C=C/C=C/1C", "note": "[everolimus] + C[As](C)SC[C@H](NC(=O)CC[C@H](N)C(=O)O)C(=O)NCC(=O)O [Darinaparsin] (first compound 0.02 µM, partner dose 0.4 µM)", "cleaved PARP positive nuclei fraction": 107},
      {"smiles": "Cn1cc(C2=C(c3cn(C4CCN(Cc5ccccn5)CC4)c4ccccc34)C(=O)NC2=O)c2ccccc21", "note": "[Enzastaurin] + C#Cc1cccc(Nc2ncnc3cc(OCCOC)c(OCCOC)cc23)c1 [erlotinib] (first compound 0.8 µM, partner dose 0.8 µM)", "cleaved PARP positive nuclei fraction": 106},
      {"smiles": "C[C@]12O[C@H](C[C@]1(O)CO)n1c3ccccc3c3c4c(c5c6ccccc6n2c5c31)CNC4=O", "note": "[Lestaurtinib] + CC(=O)O[C@@]12CO[C@@H]1C[C@H](O)[C@@]1(C)C(=O)[C@H](O)C3=C(C)[C@@H](OC(=O)[C@H](O)[C@@H](NC(=O)OC(C)(C)C)c4ccccc4)C[C@@](O)([C@@H](OC(=O)c4ccccc4)[C@H]21)C3(C)C [Docetaxel] (first compound 0.004 µM, partner dose 0.0001 µM)", "cleaved PARP positive nuclei fraction": 112},
      {"smiles": "C[C@]12O[C@H](C[C@]1(O)CO)n1c3ccccc3c3c4c(c5c6ccccc6n2c5c31)CNC4=O", "note": "[Lestaurtinib] + CS(=O)(=O)c1ccc(C(=O)Nc2ccc(Cl)c(-c3ccccn3)c2)c(Cl)c1 [vismodegib] (first compound 0.004 µM, partner dose 1 µM)", "cleaved PARP positive nuclei fraction": 88.8},
      {"smiles": "N.N.[Cl][Pt][Cl]", "note": "[cisplatin] + C=CCNC1=C2C[C@@H](C)C[C@H](OC)[C@H](O)[C@@H](C)/C=C(\\C)[C@H](OC(N)=O)[C@@H](OC)/C=C\\C=C(/C)C(=O)NC(=CC1=O)C2=O [Tanespimycin] (first compound 1.6 µM, partner dose 0.002 µM)", "cleaved PARP positive nuclei fraction": 104},
      {"smiles": "O=C(/C=C/c1cccnc1)NCCCCC1CCN(C(=O)c2ccccc2)CC1", "note": "+ C[C@]12O[C@H](C[C@]1(O)CO)n1c3ccccc3c3c4c(c5c6ccccc6n2c5c31)CNC4=O [Lestaurtinib] (first compound 0.01 µM, partner dose 0.004 µM)", "cleaved PARP positive nuclei fraction": 105},
      {"smiles": "N.N.[Cl][Pt][Cl]", "note": "[cisplatin] + OCc1c[nH]c2ccccc12 [Indole-3-carbinol] (first compound 1.6 µM, partner dose 0.8 µM)", "cleaved PARP positive nuclei fraction": 93.4},
      {"smiles": "Cn1cc(C2=C(c3cn(C4CCN(Cc5ccccn5)CC4)c4ccccc34)C(=O)NC2=O)c2ccccc21", "note": "[Enzastaurin] + CO[C@H]1C[C@@H]2CC[C@@H](C)[C@@](O)(O2)C(=O)C(=O)N2CCCC[C@H]2C(=O)O[C@H]([C@H](C)C[C@@H]2CC[C@@H](OCCO)[C@H](OC)C2)CC(=O)[C@H](C)/C=C(\\C)[C@@H](O)[C@@H](OC)C(=O)[C@H](C)C[C@H](C)/C=C/C=C/C=C/1C [everolimus] (first compound 0.8 µM, partner dose 0.02 µM)", "cleaved PARP positive nuclei fraction": 98.3}
    ]}
  ]
}
